{"source": "PubChem BioAssay AID1259308 (NCATS, 2017)", "test": "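Genes whose loss raises luciferase production in HEK293 cells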 (primary screen)", "system": "human HEK293 embryonic kidney cells stably expressing firefly luciferase (HEK-CMV-Luc2-Hygro)", "reagents": "single siRNA against human genes, 0.8 pmol siRNA per well", "time to read-out": "72 h", "detection": "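Luciferase light (ONE-Glo) measured on one replicate plate set and viability (CellTiter-Glo) on the other, scaled to a negative control siRNA, with robust z-scores and luciferase per cell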", "reading the numbers": "total luciferase, z-score: higher = more reporter protein produced", "hit rule": "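An siRNA counts as active if its total luciferase robust z-score exceeds 3; genes with two or more such siRNAs out of three were retested with fresh siRNAs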", "meaning of the calls": "active = raised luciferase; inactive = no rise", "note": "Shown is a random part of about 59,000 reagents. About 1,510 of all reagents (2.6%) were called active. 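Calls use total luciferase alone and ignore viability, so some active siRNAs may act by altering cell number.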 Entries without a mark were called inactive. Reagents against one gene are numbered here. Further read-outs or replicates are left out here."}
{"target": "HADHB", "siRNA no.": 1, "total luciferase, z-score": -0.313}
{"target": "HADHB", "siRNA no.": 2, "total luciferase, z-score": -0.449}
{"target": "HADHB", "siRNA no.": 3, "total luciferase, z-score": 0.556}
{"target": "KDM3B", "siRNA no.": 1, "total luciferase, z-score": 1.64}
{"target": "KDM3B", "siRNA no.": 2, "total luciferase, z-score": -0.348}
{"target": "KDM3B", "siRNA no.": 3, "total luciferase, z-score": -0.599}
{"target": "KCNMB2", "siRNA no.": 1, "total luciferase, z-score": -1}
{"target": "KCNMB2", "siRNA no.": 2, "total luciferase, z-score": -0.793}
{"target": "KCNMB2", "siRNA no.": 3, "total luciferase, z-score": -1.15}

2 neighbouring reagents from above:
{"target": "KDM3B", "siRNA no.": 2, "total luciferase, z-score": -0.348}
{"target": "KDM3B", "siRNA no.": 3, "total luciferase, z-score": -0.599}

More reagents follow:
{"target": "TAOK1", "siRNA no.": 1, "total luciferase, z-score": 0.609}
{"target": "TAOK1", "siRNA no.": 2, "total luciferase, z-score": -0.0666}
{"target": "TAOK1", "siRNA no.": 3, "total luciferase, z-score": -0.525}
{"target": "ATAD3B", "siRNA no.": 1, "total luciferase, z-score": 0.387}
{"target": "ATAD3B", "siRNA no.": 2, "total luciferase, z-score": -0.9}
{"target": "ATAD3B", "siRNA no.": 3, "total luciferase, z-score": -0.166}
{"target": "EIF2B2", "siRNA no.": 1, "total luciferase, z-score": -1.53}
{"target": "EIF2B2", "siRNA no.": 2, "total luciferase, z-score": -0.877}
{"target": "EIF2B2", "siRNA no.": 3, "total luciferase, z-score": -1.11}
{"target": "SLC25A29", "siRNA no.": 1, "total luciferase, z-score": 2.62}
{"target": "SLC25A29", "siRNA no.": 2, "total luciferase, z-score": -0.852}
{"target": "SLC25A29", "siRNA no.": 3, "total luciferase, z-score": -1.07}
